No constants are given. Whether binding was seen depends on the method and setting. Binding seen in cells or lysates may run through a third protein. Some entries that bind do so weakly or less than the wild type.

By UniProt entry, the sequences of proteins in these tests, tags left out.
UniProt P08050: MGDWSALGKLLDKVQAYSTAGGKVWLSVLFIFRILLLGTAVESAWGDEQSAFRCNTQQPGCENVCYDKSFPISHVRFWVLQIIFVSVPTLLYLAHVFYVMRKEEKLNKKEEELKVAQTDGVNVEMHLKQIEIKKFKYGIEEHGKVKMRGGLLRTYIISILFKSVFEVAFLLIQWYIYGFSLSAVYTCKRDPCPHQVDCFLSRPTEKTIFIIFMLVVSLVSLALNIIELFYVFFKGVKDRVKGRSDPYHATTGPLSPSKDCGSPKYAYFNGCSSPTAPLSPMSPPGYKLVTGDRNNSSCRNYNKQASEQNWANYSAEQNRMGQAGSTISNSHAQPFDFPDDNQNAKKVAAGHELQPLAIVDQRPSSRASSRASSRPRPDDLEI
UniProt P32577: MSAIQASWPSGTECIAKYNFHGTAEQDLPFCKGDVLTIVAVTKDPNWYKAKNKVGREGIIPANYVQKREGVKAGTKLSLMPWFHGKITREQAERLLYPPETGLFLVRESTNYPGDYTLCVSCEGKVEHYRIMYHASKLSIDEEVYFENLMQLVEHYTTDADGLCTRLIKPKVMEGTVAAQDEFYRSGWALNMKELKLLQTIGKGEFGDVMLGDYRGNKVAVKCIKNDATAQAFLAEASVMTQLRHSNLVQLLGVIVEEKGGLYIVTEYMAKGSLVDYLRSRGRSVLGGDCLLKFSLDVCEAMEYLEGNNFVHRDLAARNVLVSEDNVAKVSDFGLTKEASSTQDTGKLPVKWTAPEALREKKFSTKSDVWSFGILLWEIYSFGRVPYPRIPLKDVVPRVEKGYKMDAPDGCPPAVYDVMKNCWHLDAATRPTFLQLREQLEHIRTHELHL
UniProt O54857: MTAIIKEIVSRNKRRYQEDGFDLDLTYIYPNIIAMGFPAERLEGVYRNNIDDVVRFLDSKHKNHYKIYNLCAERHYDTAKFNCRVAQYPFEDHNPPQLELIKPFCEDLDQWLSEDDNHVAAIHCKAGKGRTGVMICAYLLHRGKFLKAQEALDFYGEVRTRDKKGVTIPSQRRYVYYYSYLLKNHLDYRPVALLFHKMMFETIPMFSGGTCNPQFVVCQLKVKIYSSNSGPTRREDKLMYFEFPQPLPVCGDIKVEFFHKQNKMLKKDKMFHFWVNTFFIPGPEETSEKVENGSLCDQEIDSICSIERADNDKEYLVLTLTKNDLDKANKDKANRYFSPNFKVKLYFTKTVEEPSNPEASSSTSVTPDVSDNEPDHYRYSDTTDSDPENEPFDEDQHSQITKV

Test in all cases: co-IP
For assay [1], the target named is Connexin43 (endogenous in astrocytes) (rat (endogenous in Wistar rat astrocytes)) (UniProt P08050).
The target of assay [2] is Flag WT-PTEN (UniProt P60484).
The target of assay [3] is C-terminal Src kinase (rat (endogenous in C6 glioma cells and Wistar rat astrocytes)) (UniProt P32577).
Assay [4] has as its target Flag ΔPDZ-PTEN (1-400) (UniProt P60484).
Assay [5] concerns the target HA-PTEN (UniProt P60484).

In the case of “phosphatase and tensin homolog (endogenous) (from UniProt O54857 1-403) (enzyme)”, in assay [1], the binding result was “binds”.

“Connexin43 (endogenous in astrocytes) (from UniProt P08050 1-382)”: the binding entry in assay [2], in assay [3] and in assay [4] was “binds” throughout.

Turning to “Connexin43 (rat, stably transfected in C6 glioma cells) (from UniProt P08050 1-382)”, the binding entry in assay [2], in assay [4] and in assay [5] was “binds” in each case.
